Measured values reported in the supplement of paper PMC10849652.
The other results are listed elsewhere or left out.

Protein sequences, listed by entry. Tags and fused reporters are not part of them. Lines headed by an entry give the natural chain unless they say otherwise; changes in a name come on top.
UniProt Q9GZM5: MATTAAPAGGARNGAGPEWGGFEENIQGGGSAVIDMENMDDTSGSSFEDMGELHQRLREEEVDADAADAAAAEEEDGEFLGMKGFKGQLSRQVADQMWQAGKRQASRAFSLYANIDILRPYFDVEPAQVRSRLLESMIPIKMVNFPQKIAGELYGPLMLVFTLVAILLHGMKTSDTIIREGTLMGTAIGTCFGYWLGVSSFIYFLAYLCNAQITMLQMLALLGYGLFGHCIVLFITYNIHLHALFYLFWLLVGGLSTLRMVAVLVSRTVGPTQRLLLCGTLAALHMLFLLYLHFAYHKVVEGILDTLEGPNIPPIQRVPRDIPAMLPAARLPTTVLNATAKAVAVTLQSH
UniProt Q5W0Z9: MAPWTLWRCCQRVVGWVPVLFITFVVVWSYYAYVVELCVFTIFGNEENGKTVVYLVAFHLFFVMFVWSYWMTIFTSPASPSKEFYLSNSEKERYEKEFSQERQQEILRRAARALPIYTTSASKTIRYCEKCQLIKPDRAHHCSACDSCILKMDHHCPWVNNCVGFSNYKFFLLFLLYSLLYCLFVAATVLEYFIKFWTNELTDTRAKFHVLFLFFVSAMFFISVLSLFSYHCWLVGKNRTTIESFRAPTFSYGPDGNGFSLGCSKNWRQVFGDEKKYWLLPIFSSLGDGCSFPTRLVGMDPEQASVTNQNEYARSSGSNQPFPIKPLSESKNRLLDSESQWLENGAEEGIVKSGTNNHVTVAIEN
UniProt Q96QU8: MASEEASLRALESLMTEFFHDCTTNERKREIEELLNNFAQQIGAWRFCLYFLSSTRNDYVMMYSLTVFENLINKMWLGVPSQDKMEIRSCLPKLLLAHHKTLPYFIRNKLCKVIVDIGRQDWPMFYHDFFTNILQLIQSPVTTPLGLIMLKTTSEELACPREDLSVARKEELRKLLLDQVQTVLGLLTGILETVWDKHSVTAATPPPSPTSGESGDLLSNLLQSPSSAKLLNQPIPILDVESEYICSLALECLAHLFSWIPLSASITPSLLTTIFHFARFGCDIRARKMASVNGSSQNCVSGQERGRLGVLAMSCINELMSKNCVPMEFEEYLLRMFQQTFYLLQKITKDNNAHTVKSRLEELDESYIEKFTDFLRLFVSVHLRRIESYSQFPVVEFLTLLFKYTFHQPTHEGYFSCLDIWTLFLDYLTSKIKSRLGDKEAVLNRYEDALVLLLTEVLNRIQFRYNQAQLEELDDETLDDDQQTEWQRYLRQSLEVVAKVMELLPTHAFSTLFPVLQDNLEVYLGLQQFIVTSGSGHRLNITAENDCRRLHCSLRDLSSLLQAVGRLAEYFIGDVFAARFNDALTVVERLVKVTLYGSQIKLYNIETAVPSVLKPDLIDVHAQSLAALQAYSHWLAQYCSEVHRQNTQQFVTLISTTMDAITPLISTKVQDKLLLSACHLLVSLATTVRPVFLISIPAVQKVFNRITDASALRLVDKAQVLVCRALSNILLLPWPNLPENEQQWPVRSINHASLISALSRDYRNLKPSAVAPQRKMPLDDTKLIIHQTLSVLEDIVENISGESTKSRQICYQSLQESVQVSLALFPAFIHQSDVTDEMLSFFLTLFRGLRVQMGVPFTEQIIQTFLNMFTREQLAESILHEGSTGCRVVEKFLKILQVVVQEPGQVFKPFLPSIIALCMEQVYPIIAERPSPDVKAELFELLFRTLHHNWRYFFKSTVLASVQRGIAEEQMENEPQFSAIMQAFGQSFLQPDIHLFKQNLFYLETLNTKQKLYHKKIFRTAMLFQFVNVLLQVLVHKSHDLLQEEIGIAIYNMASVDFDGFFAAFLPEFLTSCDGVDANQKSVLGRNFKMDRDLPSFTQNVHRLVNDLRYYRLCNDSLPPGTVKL
UniProt Q9NYG2: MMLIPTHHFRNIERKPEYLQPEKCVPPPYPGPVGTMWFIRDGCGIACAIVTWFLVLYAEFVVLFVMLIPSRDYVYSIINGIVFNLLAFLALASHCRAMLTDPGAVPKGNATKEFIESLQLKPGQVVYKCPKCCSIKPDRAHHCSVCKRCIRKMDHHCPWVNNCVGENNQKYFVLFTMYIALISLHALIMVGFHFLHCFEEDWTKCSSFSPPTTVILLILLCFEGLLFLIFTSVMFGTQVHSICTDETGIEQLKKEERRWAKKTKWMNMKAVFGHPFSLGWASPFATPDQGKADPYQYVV
UniProt Q86WB0: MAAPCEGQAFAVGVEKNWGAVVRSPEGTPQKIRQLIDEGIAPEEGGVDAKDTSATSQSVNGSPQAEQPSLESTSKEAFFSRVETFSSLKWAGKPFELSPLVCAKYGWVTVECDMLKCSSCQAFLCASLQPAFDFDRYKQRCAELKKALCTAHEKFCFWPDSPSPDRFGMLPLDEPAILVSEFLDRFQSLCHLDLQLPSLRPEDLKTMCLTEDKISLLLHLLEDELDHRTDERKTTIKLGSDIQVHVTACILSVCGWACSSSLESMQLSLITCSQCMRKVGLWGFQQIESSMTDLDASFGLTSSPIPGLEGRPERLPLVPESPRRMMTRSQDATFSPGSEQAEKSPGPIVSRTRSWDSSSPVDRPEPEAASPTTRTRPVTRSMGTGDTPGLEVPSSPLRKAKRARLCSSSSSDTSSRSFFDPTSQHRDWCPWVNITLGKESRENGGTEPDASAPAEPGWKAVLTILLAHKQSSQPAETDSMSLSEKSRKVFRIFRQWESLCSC
UniProt Q9NUD5: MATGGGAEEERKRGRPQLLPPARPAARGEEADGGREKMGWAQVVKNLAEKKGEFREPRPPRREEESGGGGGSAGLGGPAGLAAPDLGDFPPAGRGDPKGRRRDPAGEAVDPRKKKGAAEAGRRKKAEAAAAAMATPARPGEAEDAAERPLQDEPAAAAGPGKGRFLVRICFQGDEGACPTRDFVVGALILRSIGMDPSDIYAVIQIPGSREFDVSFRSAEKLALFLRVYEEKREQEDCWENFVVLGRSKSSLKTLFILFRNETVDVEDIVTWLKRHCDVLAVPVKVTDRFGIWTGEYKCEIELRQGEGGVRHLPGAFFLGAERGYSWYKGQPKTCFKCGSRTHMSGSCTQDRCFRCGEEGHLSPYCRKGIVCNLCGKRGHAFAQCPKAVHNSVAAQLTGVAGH
UniProt Q9ULJ3: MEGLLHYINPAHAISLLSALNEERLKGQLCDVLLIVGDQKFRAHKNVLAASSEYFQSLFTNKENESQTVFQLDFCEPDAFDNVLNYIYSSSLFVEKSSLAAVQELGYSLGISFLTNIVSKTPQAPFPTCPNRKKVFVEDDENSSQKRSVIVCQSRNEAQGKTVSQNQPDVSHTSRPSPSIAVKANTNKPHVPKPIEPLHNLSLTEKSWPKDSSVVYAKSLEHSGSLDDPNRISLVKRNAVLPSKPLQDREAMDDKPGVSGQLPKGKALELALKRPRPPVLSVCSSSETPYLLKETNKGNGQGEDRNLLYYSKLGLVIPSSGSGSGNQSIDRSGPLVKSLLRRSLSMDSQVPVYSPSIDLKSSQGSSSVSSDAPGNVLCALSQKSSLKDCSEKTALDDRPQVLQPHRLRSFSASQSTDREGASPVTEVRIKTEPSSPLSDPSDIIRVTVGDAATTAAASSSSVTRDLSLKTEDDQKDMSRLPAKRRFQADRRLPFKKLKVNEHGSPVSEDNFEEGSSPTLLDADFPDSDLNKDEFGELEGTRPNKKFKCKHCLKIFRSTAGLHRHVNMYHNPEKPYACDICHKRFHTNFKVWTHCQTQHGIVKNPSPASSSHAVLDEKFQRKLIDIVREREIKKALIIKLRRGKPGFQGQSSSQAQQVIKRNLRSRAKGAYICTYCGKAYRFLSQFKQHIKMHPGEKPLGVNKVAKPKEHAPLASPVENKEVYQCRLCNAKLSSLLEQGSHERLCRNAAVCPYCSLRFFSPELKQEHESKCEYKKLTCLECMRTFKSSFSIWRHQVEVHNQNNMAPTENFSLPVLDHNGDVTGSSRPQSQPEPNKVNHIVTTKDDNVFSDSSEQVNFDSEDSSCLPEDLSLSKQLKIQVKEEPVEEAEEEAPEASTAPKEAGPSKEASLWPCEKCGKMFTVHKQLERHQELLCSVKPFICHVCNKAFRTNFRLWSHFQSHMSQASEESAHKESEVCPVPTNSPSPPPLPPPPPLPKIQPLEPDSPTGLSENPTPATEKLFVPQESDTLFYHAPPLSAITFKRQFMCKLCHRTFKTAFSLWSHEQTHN
UniProt Q96DT7: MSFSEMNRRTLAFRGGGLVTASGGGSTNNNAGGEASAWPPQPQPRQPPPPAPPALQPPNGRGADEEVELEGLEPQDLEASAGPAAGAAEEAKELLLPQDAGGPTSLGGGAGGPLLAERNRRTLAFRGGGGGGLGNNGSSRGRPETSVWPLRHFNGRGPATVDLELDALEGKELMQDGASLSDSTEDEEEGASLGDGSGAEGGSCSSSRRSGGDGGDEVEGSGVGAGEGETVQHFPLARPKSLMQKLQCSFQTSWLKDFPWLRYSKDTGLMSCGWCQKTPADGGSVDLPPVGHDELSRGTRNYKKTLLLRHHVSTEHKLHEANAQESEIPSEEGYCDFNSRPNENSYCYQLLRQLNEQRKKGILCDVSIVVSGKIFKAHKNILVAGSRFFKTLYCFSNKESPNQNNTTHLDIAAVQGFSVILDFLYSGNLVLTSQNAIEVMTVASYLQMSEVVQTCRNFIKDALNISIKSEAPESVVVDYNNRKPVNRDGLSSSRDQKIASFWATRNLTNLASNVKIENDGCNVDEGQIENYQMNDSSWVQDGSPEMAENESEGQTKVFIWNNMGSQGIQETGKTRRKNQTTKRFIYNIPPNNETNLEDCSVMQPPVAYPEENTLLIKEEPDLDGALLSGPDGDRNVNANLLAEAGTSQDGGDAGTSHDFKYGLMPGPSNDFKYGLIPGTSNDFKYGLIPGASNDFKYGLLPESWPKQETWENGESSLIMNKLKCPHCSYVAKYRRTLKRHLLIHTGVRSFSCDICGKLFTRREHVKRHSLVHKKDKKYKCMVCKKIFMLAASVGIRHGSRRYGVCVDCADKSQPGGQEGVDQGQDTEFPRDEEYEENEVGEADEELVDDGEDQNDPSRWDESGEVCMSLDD
UniProt Q96EC8: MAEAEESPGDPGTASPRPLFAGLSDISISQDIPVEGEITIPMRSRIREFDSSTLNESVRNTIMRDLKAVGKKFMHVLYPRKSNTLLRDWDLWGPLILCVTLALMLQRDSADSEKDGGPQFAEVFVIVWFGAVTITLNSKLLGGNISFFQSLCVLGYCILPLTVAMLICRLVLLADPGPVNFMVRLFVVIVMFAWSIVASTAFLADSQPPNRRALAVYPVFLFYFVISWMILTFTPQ
UniProt P62699: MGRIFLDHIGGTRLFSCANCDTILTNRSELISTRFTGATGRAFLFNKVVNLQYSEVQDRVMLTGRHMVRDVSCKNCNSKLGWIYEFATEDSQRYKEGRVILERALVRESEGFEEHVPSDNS
UniProt Q8NBI6: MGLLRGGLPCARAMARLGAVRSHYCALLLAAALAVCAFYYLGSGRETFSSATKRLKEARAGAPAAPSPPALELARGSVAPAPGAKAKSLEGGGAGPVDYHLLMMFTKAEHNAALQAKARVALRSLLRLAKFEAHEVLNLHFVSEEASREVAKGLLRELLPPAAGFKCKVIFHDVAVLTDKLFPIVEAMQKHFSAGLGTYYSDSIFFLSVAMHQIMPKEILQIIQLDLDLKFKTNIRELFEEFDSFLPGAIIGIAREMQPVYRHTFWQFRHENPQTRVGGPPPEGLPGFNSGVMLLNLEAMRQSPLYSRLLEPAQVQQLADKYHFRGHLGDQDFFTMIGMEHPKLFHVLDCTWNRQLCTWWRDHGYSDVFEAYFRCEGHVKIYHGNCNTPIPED
UniProt P61981: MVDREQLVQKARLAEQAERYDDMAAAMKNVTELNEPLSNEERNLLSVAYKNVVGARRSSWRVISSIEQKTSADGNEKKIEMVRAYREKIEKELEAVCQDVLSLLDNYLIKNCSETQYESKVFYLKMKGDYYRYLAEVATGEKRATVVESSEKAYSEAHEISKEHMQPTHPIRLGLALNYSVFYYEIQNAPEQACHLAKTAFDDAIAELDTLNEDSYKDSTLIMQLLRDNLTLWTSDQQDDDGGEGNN
UniProt P67809, whole entry, looked up: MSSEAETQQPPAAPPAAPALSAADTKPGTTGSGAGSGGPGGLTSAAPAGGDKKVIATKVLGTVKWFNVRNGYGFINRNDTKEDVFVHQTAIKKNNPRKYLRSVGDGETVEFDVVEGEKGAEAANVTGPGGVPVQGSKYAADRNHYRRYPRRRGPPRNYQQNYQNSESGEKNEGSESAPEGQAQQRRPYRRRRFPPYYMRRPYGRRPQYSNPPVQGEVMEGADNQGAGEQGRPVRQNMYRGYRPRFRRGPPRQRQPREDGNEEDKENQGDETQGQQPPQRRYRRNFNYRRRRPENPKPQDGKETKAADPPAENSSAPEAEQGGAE
UniProt O15498: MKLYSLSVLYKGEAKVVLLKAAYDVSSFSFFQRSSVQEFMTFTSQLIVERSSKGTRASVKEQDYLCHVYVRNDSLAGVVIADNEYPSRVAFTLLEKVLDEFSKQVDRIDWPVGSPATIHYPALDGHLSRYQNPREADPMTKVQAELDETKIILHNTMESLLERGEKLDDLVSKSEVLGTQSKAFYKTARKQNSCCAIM

Each target was assayed with CC1=C2C(=CC=C1)N=C(N(C2=O)C3=CC=CC=C3C)CN4C=NC5=C(N=CN=C54)N (assay: log2 fold change, soluble protein after heating vs DMSO (PISA); higher = thermal stabilisation; K562 lysate, 10 uM; active = over 0.2 and 3.5 SD of the protein, either way, in both replicates (recomputed)).
Procedure, shortened: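 Pellets of K562 cells were dounce-homogenised in PBS pH 7.4 with 1 mM MgCl2, and the crude extract was held at 1 mg/mL protein for a 30 min treatment with 10 μM compound. Aliquots were heated for 3 min over 48°C-58°C and pooled before NP-40 was added to 0.5% at 4°C. The supernatant from 21,000xg for 90 min was quantified by TMTpro 16plex LC-MS/MS with channel sums equalised. Values are reported from duplicates as log-two fold change in thermal stability relative to solvent controls.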

| Target | log2 fold change |
| --- | --- |
| YIPF3 (UniProt Q9GZM5) | inactive: -0.007 |
| ZFR (UniProt Q96KR1) | inactive: 0.001 |
| ZC3H18 (UniProt E7ERS3) | inactive: -0.001 |
| YTHDC1 (UniProt Q96MU7) | inactive: 0.186 |
| ZDHHC20 (UniProt Q5W0Z9) | inactive: 0.053 |
| XPO6 (UniProt Q96QU8) | inactive: 0.023 |
| ZDHHC3 isoform 2 (UniProt Q9NYG2) | inactive: 0.042 |
| ZC3HC1 (UniProt Q86WB0) | inactive: 0.006 |
| ZCCHC3 (UniProt Q9NUD5) | inactive: -0.027 |
| ZEB1 isoform 2 (UniProt P37275) | inactive: 0.027 |
| ZBTB21 (UniProt Q9ULJ3) | inactive: 0.038 |
| ZFAND5 (UniProt O76080) | inactive: 0.081 |
| YWHAQ (UniProt P27348) | inactive: -0.001 |
| ZBTB10 (UniProt Q96DT7) | inactive: 0.114 |
| YIPF6 (UniProt Q96EC8) | inactive: 0.03 |
| YES1 (UniProt P07947) | inactive: 0.009 |
| YPEL5 (UniProt P62699) | inactive: -0.03 |
| XXYLT1 (UniProt Q8NBI6) | inactive: 0.034 |
| YWHAG (UniProt P61981) | inactive: -0.02 |
| YBX1 (UniProt P67809) | inactive: -0.026 |
| YKT6 (UniProt O15498) | inactive: 0.019 |
| ZFP36L2 (UniProt P47974) | inactive: -0.083 |
| XPNPEP3 (UniProt Q9NQH7) | inactive: -0.009 |

Two records drawn at random from those above:

| Target | log2 fold change |
| --- | --- |
| YBX1 (UniProt P67809) | inactive: -0.026 |
| XXYLT1 (UniProt Q8NBI6) | inactive: 0.034 |
